Assay results as given in PubChem BioAssay AID1347426 (Functional Genomics Laboratory (NCATS/FGL), 2020).
The whole screen tested about 31,000 sequences, of which about 1,400 (4.5%) were called active.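 The calls were made as follows: active = median seed-adjusted z-score above 1 or below -1; inactive = the rest.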 This is one part of the list.

assay: Novel Modifiers of Survival Motor Neuron (SMN) Protein: Gene Identification via Genome-wide siRNA Screen; conditions: HEK293T SMN2-luciferase reporter, siRNA knockdown, 72 h; actives lie on both sides;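 also: luminescence tracks full-length SMN protein made from the SMN2 reporter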
How it was run: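 Steps: spot 1 pmol siRNA, add Lipofectamine RNAiMax in serum-free DMEM, seed HEK293T SMN2–luciferase reporter cells; incubate 72 h at 37 °C; add ONE-Glo; normalize luminescence to control siRNA, log10, MAD. Candidates: |MAD| > 1.0.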

Sequence | median seed-adjusted z-score
GAUGGAACCGUUUACAAUATT against RPE65 | inactive: -0.655
GCUGGGAACCUACUCAUUATT against PAQR6 | inactive: 0.632
GUAUCACGCAGUUACCAAATT against GSR | inactive: -0.467
GAUCAUGGAUUAGAACUGUTT against MOGAT1 | inactive: 0.293
GGGUUGAGCUCCAAAGAAUTT against B4GALT4 | inactive: -0.0479
GUUACUUCCGAAUCCAUGATT against ZNF627 | inactive: 0.204
CCUUUUCCUGUAGAUCAAATT against BACH2 | inactive: 0
GCUUUGCAGUGAAUAUCGATT against SPINK5 | inactive: 0.26
GCAAUGUGAACAACCCUAUTT against CAPN6 | inactive: 0.0288
GGACUGGAAUUUUGAGAGATT against PLSCR1 | inactive: 0.661
ACACGCUCAUUUCAUCACATT against PET112L | inactive: 0.235
AAACGAUUUUUACUCAUAUTT against PDCD2 | inactive: -0.232
CCGUCGAAUUUGAAGGUGATT against SULF1 | inactive: -0.128
CCUUGUCUGUGCUCAAGUATT against USP35 | inactive: -0.219
CAUUCGCAAUGUCUCCUGUTT against GPR114 | inactive: 0.805
GACCUUGACUUUGAUAUCATT against MPHOSPH10 | inactive: 0.374
GGAGUUUUUCGGAGCUGUATT against SIPA1 | inactive: -0.0872
CUGAUCCUCUGGAUAAUCATT against SPTLC1 | inactive: 0.0941
CAGUUACUCCAGAGGCUAATT against RAB42 | inactive: 0.241
GAUCCAGAAGGGUAGUUAUTT against SERPINB2 | inactive: -0.0739
GGUGGAAGUGGUCAACGUATT against DUSP21 | inactive: -0.0724
GAAACGCAGAGGGAUCAUATT against HEYL | inactive: 0.48
CGAGGAAUAUAUAGGUGUATT against CD3D | inactive: -0.403
GCAUCUAGGUAGCAAUGUUTT against SLITRK5 | inactive: 0.165
GGAACAGUGCCGGCAAGAATT against CYP4F11 | inactive: 0.307
CAAUCAGAAUUACUAGAUUTT against TXNDC11 | inactive: 0.642
CUCCUAAAGUGAUUGGUAUTT against HSPA13 | inactive: 0

Another view of some results above.
Sequence	median seed-adjusted z-score
GGUGGAAGUGGUCAACGUATT against DUSP21	inactive: -0.0724
GAAACGCAGAGGGAUCAUATT against HEYL	inactive: 0.48
CGAGGAAUAUAUAGGUGUATT against CD3D	inactive: -0.403
GCAUCUAGGUAGCAAUGUUTT against SLITRK5	inactive: 0.165
GGAACAGUGCCGGCAAGAATT against CYP4F11	inactive: 0.307

Going on with the list:

Sequence | median seed-adjusted z-score
GGUAAGAAGGAUUCCAUUATT against SHOX | inactive: 0.316
GGACCCUACCAGAACUACATT against SEMA6D | inactive: 0.0624
CAAAUAAGAAGGCCCAAUATT against SAV1 | inactive: 0.766
GCAGCUCAGCAGUUUAGUATT against MYO18A | inactive: 0.174
GCAAGGCUAUUAUAGAUCATT against CTNNA3 | inactive: 0.249
ACACCACGCUCAACAUCAATT against ZBED1 | inactive: 0.0567
CGGAUGAAAUCCUGACGUATT against AHR | inactive: -0.0422
CCAGGUCCAUGGAAAGAAATT against NEIL2 | inactive: -0.256
CCAUUGACUUUCAAUUAUUTT against PVRL3 | inactive: -0.0385
GAAUGCUGUUUAUCUUAAUTT against PNPLA1 | inactive: 0.00692
GGGUCCCUAUUAUCCAGCATT against BAT3 | inactive: 0.567
GGAGAAAGAAUGACGAGAATT against TGFBR2 | inactive: 0.8
CGUAAUCAAAUCUACCAAATT against LGR4 | inactive: 0.14
GAAAGAAUUUCACUACAAUTT against HOXB7 | inactive: -0.153
CAAGCCGGAUGGUACGUAUTT against CDA | inactive: 0.471
GGAUUACAGGAGGCAAUCATT against PGM3 | inactive: -0.527
CAUUGUCAGUCGGAGUAUATT against RPA4 | inactive: 0.132
CUUCUGAGAUUUCGACGAATT against GLRA3 | inactive: 0.0585
GGCGAUCACAGAUAUCAUUTT against RABGEF1 | inactive: 0.278
GAAAGACGAGAACUAUUUATT against EHF | inactive: 0.581
CUAUGACCAAUGAACCAGATT against SERINC1 | inactive: -0.255
GAGUAAGUGAAAUAGAACATT against ZBTB26 | inactive: 0
GGAUCCAAAUGGACAUUCATT against MLF1 | inactive: 0.258
UCUUCACCGUGUGCCUAGATT against CRAT | active: -1.42
AGUUCUCUCAGGACGGUAATT against IDUA | inactive: -0.353
AGAGCUGAGUGGUAGCUUATT against FGD3 | inactive: 0.245
GCCUCGUUCUGAAGACGAUTT against LIPC | inactive: 0.244
